PubChem BioAssay AID652259 – Drosophila RNAi Screening Center, 2013

Aim: 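Knock-downs that push a Wingless-driven reporter up or down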 (primary screen)
System: Drosophila clone 8 imaginal disc epithelial cells
Reagent: long dsRNA against Drosophila genes
Challenge: pathway stimulated by co-transfected Wingless expression plasmid
Read-out: 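Dual luciferase reads per well after Wingless plasmid stimulation: reporter firefly light and Renilla control light; activity is firefly divided by Renilla, a ratio not deposited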
Reading the numbers: firefly reporter light: higher = more Wg reporter light, before normalisation; Renilla control light: higher = more transfected or surviving cells
Call rule: 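a knock-down is a candidate when at least two out of four statistical tests show it departing from its plate mean; one test alone signals a weak candidate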
Meaning of the calls: active = candidate regulator (raises or lowers reporter); inactive = not a candidate
The screen tested about 22,000 reagents; shown is a random part of those that have a named target and a result. Of all reagents, 233 (1.1%) got an active call. 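Light values are raw, unnormalised plate reads; the ratio scores behind the reporter calls were not deposited.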 Entries without a mark were called inactive. A plus sign joins genes that one reagent is predicted to hit. Reagent sequences are not shown. Not given: the amount of reagent, the time to read-out, the dose of the treatment.

Pcp [DRSC03395]
- firefly reporter light, replicate 1: 2738
- firefly reporter light, replicate 2: 9616
- Renilla control light, replicate 1: 1028
- Renilla control light, replicate 2: 3184

CG42699 [DRSC18076]
- firefly reporter light, replicate 1: 1635
- firefly reporter light, replicate 2: 4065
- Renilla control light, replicate 1: 756
- Renilla control light, replicate 2: 1595

CG42699 [DRSC18341]
- firefly reporter light, replicate 1: 21410
- Renilla control light, replicate 1: 11666

CG11686 [DRSC14350]
- firefly reporter light, replicate 1: 14156
- Renilla control light, replicate 1: 1862

CG14891 [DRSC15013]
- firefly reporter light, replicate 1: 2672
- firefly reporter light, replicate 2: 6234
- Renilla control light, replicate 1: 1402
- Renilla control light, replicate 2: 2326

Ephrin [DRSC17165]
- firefly reporter light, replicate 1: 16528
- Renilla control light, replicate 1: 11360

Ect3 [DRSC15462]
- firefly reporter light, replicate 1: 18567
- Renilla control light, replicate 1: 7584

Tes [DRSC06996]
- firefly reporter light, replicate 1: 5485
- Renilla control light, replicate 1: 2420

Idgf4 [DRSC18675]
- firefly reporter light, replicate 1: 15042
- Renilla control light, replicate 1: 8517

ZnT86D [DRSC16091]
- firefly reporter light, replicate 1: 17393
- Renilla control light, replicate 1: 3394

Rx [DRSC03837]
- firefly reporter light, replicate 1: 28108
- Renilla control light, replicate 1: 11718

Rx [DRSC04652]
- firefly reporter light, replicate 1: 3337
- firefly reporter light, replicate 2: 9354
- Renilla control light, replicate 1: 1284
- Renilla control light, replicate 2: 4017

CG10654 [DRSC09767]
- firefly reporter light, replicate 1: 6199
- Renilla control light, replicate 1: 2275

Vps53 [DRSC00595]
- firefly reporter light, replicate 1: 10441
- Renilla control light, replicate 1: 4240

Iris [DRSC00663]
- firefly reporter light, replicate 1: 10857
- Renilla control light, replicate 1: 4170

CG13069 [DRSC09952]
- firefly reporter light, replicate 1: 8024
- Renilla control light, replicate 1: 4492

PIG-T [DRSC17774]
- firefly reporter light, replicate 1: 27594
- Renilla control light, replicate 1: 11300

CG1774 [DRSC15258]
- firefly reporter light, replicate 1: 1564
- firefly reporter light, replicate 2: 4394
- Renilla control light, replicate 1: 1056
- Renilla control light, replicate 2: 1700

CG17660 [DRSC00513]
- firefly reporter light, replicate 1: 12819
- Renilla control light, replicate 1: 5124

rdgC [DRSC11387]
- firefly reporter light, replicate 1: 10424
- Renilla control light, replicate 1: 2321

Acp65Aa [DRSC09663]
- firefly reporter light, replicate 1: 1173
- firefly reporter light, replicate 2: 6360
- Renilla control light, replicate 1: 1021
- Renilla control light, replicate 2: 2896

CG13014 [DRSC19533]
- firefly reporter light, replicate 1: 16695
- Renilla control light, replicate 1: 7993

snRNP-U1-70K [DRSC03612]
- firefly reporter light, replicate 1: 3442
- firefly reporter light, replicate 2: 8725
- Renilla control light, replicate 1: 1275
- Renilla control light, replicate 2: 3216

snRNP-U1-70K [DRSC22071]
- firefly reporter light, replicate 1: 5.83e5
- firefly reporter light, replicate 2: 5.68e5
- Renilla control light, replicate 1: 1.19e5
- Renilla control light, replicate 2: 1.48e5

Taf13 [DRSC02106]
- firefly reporter light, replicate 1: 2496
- firefly reporter light, replicate 2: 5649
- Renilla control light, replicate 1: 699
- Renilla control light, replicate 2: 2172

CG10638 [DRSC09762]
- firefly reporter light, replicate 1: 4995
- Renilla control light, replicate 1: 2067

cDIP [DRSC14267]
- firefly reporter light, replicate 1: 2452
- firefly reporter light, replicate 2: 4984
- Renilla control light, replicate 1: 1145
- Renilla control light, replicate 2: 1691

Roc2 [DRSC07313]
- firefly reporter light, replicate 1: 10720
- Renilla control light, replicate 1: 3541

Shawn + Tyler [DRSC19564]
- firefly reporter light, replicate 1: 2662
- firefly reporter light, replicate 2: 8316
- Renilla control light, replicate 1: 800
- Renilla control light, replicate 2: 1748

Shawn + Tyler [DRSC19565]
- firefly reporter light, replicate 1: 18969
- Renilla control light, replicate 1: 12355

coil [DRSC07242]
- firefly reporter light, replicate 1: 4566
- Renilla control light, replicate 1: 874

CG8460 [DRSC03090]
- firefly reporter light, replicate 1: 9834
- Renilla control light, replicate 1: 4336

Records above whose target name starts with R or r:
Rx [DRSC03837]
- firefly reporter light, replicate 1: 28108
- Renilla control light, replicate 1: 11718

Rx [DRSC04652]
- firefly reporter light, replicate 1: 3337
- firefly reporter light, replicate 2: 9354
- Renilla control light, replicate 1: 1284
- Renilla control light, replicate 2: 4017

rdgC [DRSC11387]
- firefly reporter light, replicate 1: 10424
- Renilla control light, replicate 1: 2321

Roc2 [DRSC07313]
- firefly reporter light, replicate 1: 10720
- Renilla control light, replicate 1: 3541
